Test results: publication PMC4963535 (Nature Communications, 2016)

Test: general procedure: Fmoc solid-phase peptide synthesis; PyBOP, HOBt, DIPEA (1a-d); HATU, DIPEA (2a-d, 3a-d); microwave
Conditions: whole synthesis

## {1-[4'-(4-{4-[4-(2-methoxyphenyl)piperazin-1-yl]butyl}-1H-1,2,3-triazol-1-yl)-(1,1'-biphenyl)-4-yl]-1-carboxamido-[tetrakis-(4,7,10,13,16,19-hexaoxaheneicosanoylamido)]}-L-arginyl-L-arginyl-L-prolyl-L-tyrosyl-L-isoleucyl-L-leucine
System S1C
  final HPLC purity: >99%

## {1-[4'-(4-{4-[(2,3-dihydro-1H-inden-2-yl)(propyl)amino]butyl}-1H-1,2,3-triazol-1-yl)-(1,1'-biphenyl)-4-yl]-1-carboxamido-(4,7,10,13,16,19-hexaoxaheneicosanoylamido)}-L-arginyl-L-arginyl-L-prolyl-L-tyrosyl-L-isoleucyl-L-leucine
System S1A
  final HPLC purity: >99%

## {1-[4'-(4-{4-[(2,3-dihydro-1H-inden-2-yl)(propyl)amino]butyl}-1H-1,2,3-triazol-1-yl)-(1,1'-biphenyl)-4-yl]-1-carboxamido-[tetrakis-(4,7,10,13,16,19-hexaoxaheneicosanoylamido)]}-L-arginyl-L-arginyl-L-prolyl-L-tyrosyl-L-isoleucyl-L-leucine
System S1C
  final HPLC purity: 98%

## {1-[4'-(4-{4-[4-(2-methoxyphenyl)piperazin-1-yl]butyl}-1H-1,2,3-triazol-1-yl)-(1,1'-biphenyl)-4-yl]-1-carboxamido-(4,7,10,13,16,19-hexaoxaheneicosanoylamido)}-L-arginyl-L-arginyl-L-prolyl-L-tyrosyl-L-isoleucyl-L-leucine
System S1A
  final HPLC purity: >99%

## {1-[4'-(4-{4-[4-(2-methoxyphenyl)piperazin-1-yl]butyl}-1H-1,2,3-triazol-1-yl)-(1,1'-biphenyl)-4-yl]-1-carboxamido-[bis-(4,7,10,13,16,19-hexaoxaheneicosanoylamido)]}-L-arginyl-L-arginyl-L-prolyl-L-tyrosyl-L-isoleucyl-L-leucine
System S1A
  final HPLC purity: >99%

## {1-[4'-(4-{4-[(2,3-dihydro-1H-inden-2-yl)(propyl)amino]butyl}-1H-1,2,3-triazol-1-yl)-(1,1'-biphenyl)-4-yl]-1-carboxamido-[bis-(4,7,10,13,16,19-hexaoxaheneicosanoylamido)]}-L-arginyl-L-arginyl-L-prolyl-N-[2-(4-hydroxyphenyl)ethyl]glycine-L-isoleucyl-L-leucine
System S1A
  final HPLC purity: >99%

## [1-(4'-{4-[4-({(3R,5S)-5-[(3-chloro-5-ethyl-6-hydroxy-2-methoxybenzamido)methyl]-1-ethylpyrrolidin-3-yl}oxy)butyl]-1H-1,2,3-triazol-1-yl}-(1,1'-biphenyl)-4-yl)-1-carboxamido-[bis-(4,7,10,13,16,19-hexaoxaheneicosanoylamido)]]-L-arginyl-L-arginyl-L-prolyl-L-tyrosyl-L-isoleucyl-L-leucine
System S1D
  final HPLC purity: 98.8%
System S2D
  final HPLC purity: 98.6%

## {1-[4'-(4-{4-[4-(2-methoxyphenyl)piperazin-1-yl]butyl}-1H-1,2,3-triazol-1-yl)-(1,1'-biphenyl)-4-yl]-1-carboxamido-[tris-(4,7,10,13,16,19-hexaoxaheneicosanoylamido)]}-L-arginyl-L-arginyl-L-prolyl-L-tyrosyl-L-isoleucyl-L-leucine
System S1B
  final HPLC purity: >99%
